# Reference: PMC6713331
# No constants are given. Whether binding was seen depends on the method and setting. Binding seen in cells or lysates may run through a third protein. Binding can be weak; no strength is given. For some assays here: Where a sequence is shown, tags or fusion partners need not be part of it.
# T1: FLAG-tagged BGLF3 (wild type) (Epstein-Barr virus) (UniProt P03220)
# T1 sequence: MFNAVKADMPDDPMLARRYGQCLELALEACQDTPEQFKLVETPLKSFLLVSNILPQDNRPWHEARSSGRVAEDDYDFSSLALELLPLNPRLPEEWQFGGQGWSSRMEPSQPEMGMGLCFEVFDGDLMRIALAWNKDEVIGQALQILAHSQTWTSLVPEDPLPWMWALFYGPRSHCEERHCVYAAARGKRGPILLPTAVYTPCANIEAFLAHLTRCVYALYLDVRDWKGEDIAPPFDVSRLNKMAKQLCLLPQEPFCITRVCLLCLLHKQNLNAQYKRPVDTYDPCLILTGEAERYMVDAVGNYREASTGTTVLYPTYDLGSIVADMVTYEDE
# B1: BGLF3 (wild type; prey of the FLAG-BVLF1 co-immunoprecipitation) (protein, UniProt P03220 1-332)
# chain: T1 sequence
# B2: BFRF2 (protein, UniProt P14347 1-591)
# chain: MALFLARHTLSGTGAGCHGRGPAPDVSEVDLTLQALGERGFSRLLDLGLACLDLSYVEMREFVVWGRPPASEAAVASTPGSLFRSHSSAYWLSEVERPGGLVRWARSQTSPSSLTLAPHLGPSLLSLSVVTGGGCGAVAFCNAFFLAYFLVVRSVFPAFSDRIAAWICDRSPFCENTRAVARGYRGLVKRFLAFVFERSSYDPPLLRQNSRPVERCFAIKNYVPGLDSQSCVTVPSFSRWAQSHASELDPREIRDRVTPATAPSFVADHASALLASLQKKASDTPCGNPIQWMWYRLLVNSCLRSAHCLLPIPAVSEGGRKTGGGVGEELVGAGGPCLSRDVFVAIVSRNVLSCLLNVPAAGPRAYKCFRSHASRPVSGPDYPPLAVFCMDCGYCLNFGKQTGVGGRLNSFRPTLQFYPRDQKEKHVLTCHASGRVYCSNCGSAAVGCQRLAEPPSARSGWRPRIRAVLPHNAAYELDRGSRLLDAIIPCLGPDRTCMRPVVLRGVTVRQLLYLTLRTEARAVCSICQQRQAPEDARDEPHLFSSCLEVELPPGERCAGCRLYQTRYGTPAAQAHPPGEAGGGFSRQSPAS
# Tests used:
# [1] = target: T1, FLAG-tagged BGLF3 (wild type) (Epstein-Barr virus); assay: co-IP; FLAG-tagged BGLF3 or BGLF3(T42A) as bait with one partner (BcRF1, BFRF2 or BVLF1) co-expressed in 2089 cells; anti-FLAG M2 agarose, 2 h, 4 C; lysis buffer 20 mM Tris-HCl pH 7.5, 150 mM NaCl, 1 mM EDTA, 1 mM EGTA, 1% Triton; eluted with 3X FLAG peptide; anti-Myc blot; ZEBRA co-transfected in the BcRF1 experiment
# [2] = target: T1, FLAG-tagged BGLF3 (wild type) (Epstein-Barr virus); assay: co-IP; FLAG-tagged BGLF3 or BGLF3(T42A) as bait with BFRF2 and BVLF1 co-expressed together in 2089 cells; anti-FLAG M2 agarose, 2 h, 4 C; eluted with 3X FLAG peptide; anti-Myc blot
# [3] = target: FLAG-tagged BVLF1 (Epstein-Barr virus); assay: co-IP; FLAG-tagged BVLF1 as bait with BFRF2 together with BGLF3 or BGLF3(T42A) in 2089 cells; anti-FLAG M2 agarose; anti-Myc blot; quantitation from two independent experiments
# [4] = target: FLAG-tagged BVLF1 (Epstein-Barr virus); assay: co-IP; FLAG-tagged BVLF1 as bait with BFRF2 alone (no BGLF3 transfected) in 2089 cells; anti-FLAG M2 agarose; anti-Myc blot
molecule,measurement,setting,value
BcRF1 (viral TATA box binding protein) (Epstein-Barr virus),binding,[1],binds
"BVLF1 (prey, detected by anti-Myc) (Epstein-Barr virus)",binding,[2],binds
same,binding,[1],binds
B1,binding,[3],binds
B2,binding,[4],binds weakly
